In patent EP1150705B1, “PROTECTION OF CELLS WITH BBI IN CONNECTION WITH TREATMENT WITH CHEMICAL AGENTS” (Eberhard-Karls-Universität Tübingen Universitätsklinikum, priority 1999, dated 2004):
At least one peptide structure holds a part that was inferred or is arguable (an end, a ring closure or a residue). Some compounds share one wording; it may come from a single statement. Where a SMILES comes first, the peptide text is derived from it. Bridges are numbered along the chain shown (N, C = ends).

Columns and labels:
Chymotrypsin = experiment: Protease inhibition test, chymotrypsin (Fig. 4); assay type: biochemical; conditions: 0,1 mM, 10 min, substrate Acetyl-A-A-P-F-pNa, rough estimate
Trypsin = experiment: Protease inhibition test, trypsin (Fig. 5); assay type: biochemical; conditions: 0,1 mM, substrate CBZ-R-pNA
[1] = system: Normale humane Hautfibroblasten; experiment: Clonogenic assay (colony formation), pre-treatment before cisplatin, normal skin fibroblasts; assay type: cell-based, human; conditions: 80 µM peptide pre-treatment 16 h, then Cisplatin, Fig. 2
[2] = system: HH4DD-Zellen (in vitro spontan transformierte menschliche Hautfibroblasten); experiment: Clonogenic assay (colony formation), pre-treatment before cisplatin, transformed skin fibroblasts; assay type: cell-based, human; conditions: 80 µM peptide pre-treatment 16 h, then Cisplatin, Fig. 3

SMILES	Inhibition der Chymotrypsin-Aktivität (Chymotrypsin)	Inhibition der Aktivität von Trypsin (Trypsin)	Steigerung des klonogenen Überlebens gegenüber nicht vorbehandelten Hautfibroblasten ([1]; 1 h incubation after cisplatin)	Steigerung des klonogenen Überlebens gegenüber nicht vorbehandelten Hautfibroblasten ([1]; 6 h incubation after cisplatin) [%]	klonogenes Überleben vorbehandelter und nicht vorbehandelter Zellen ([2]; cells seeded immediately after treatment)	klonogenes Überleben vorbehandelter gegenüber nicht vorbehandelten Zellen ([2]; incubation times after 0 h (up to 24 h))
CC(C)C[C@H](NC(=O)[C@H](C)NC(=O)[C@@H](N)CS)C(=O)N[C@H](C(=O)N[C@@H](Cc1ccc(O)cc1)C(=O)N1CCC[C@H]1C(=O)N[C@@H](C)C(=O)N[C@@H](CCC(N)=O)C(=O)N[C@@H](CS)C(=O)O)C(C)C [Peptid P4] (H-CALVYPAQC-OH)	nicht oder nur um wenige Prozent	keine wesentliche Auswirkung				
CC(C)C[C@H](NC(=O)[C@H](C)N)C(=O)N[C@@H](CO)C(=O)N[C@@H](Cc1ccc(O)cc1)C(=O)N1CCC[C@H]1C(=O)N[C@@H](C)C(=O)N[C@@H](CCC(N)=O)C(=O)O [Peptid P2] (H-ALSYPAQ-OH)	nicht oder nur um wenige Prozent	keine wesentliche Auswirkung				
CC(C)C[C@@H]1NC(=O)[C@H](C)NC(=O)[C@@H](N)CSSC[C@@H](C(=O)O)NC(=O)[C@H](CCC(N)=O)NC(=O)[C@H](C)NC(=O)[C@@H]2CCCN2C(=O)[C@H](Cc2ccc(O)cc2)NC(=O)[C@H](CO)NC1=O [Peptid P1] (H-CALSYPAQC-OH; disulfide 1-9)	nicht oder nur um wenige Prozent	keine wesentliche Auswirkung	ca. 50%	~80	etwa gleich	weiter reduzierten klonogenen Überleben
CC(C)C[C@H](NC(=O)[C@H](C)NC(=O)[C@@H](N)CS)C(=O)N[C@@H](CO)C(=O)N[C@@H](Cc1ccc(O)cc1)C(=O)N1CCC[C@H]1C(=O)N[C@@H](C)C(=O)N[C@@H](CCC(N)=O)C(=O)N[C@@H](CS)C(=O)O [Peptid P3] (H-CALSYPAQC-OH)	nicht oder nur um wenige Prozent	keine wesentliche Auswirkung				
